## Assay results

The results are deposited in PubChem (AID1159506; NCATS, 2015).

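Genome-wide siRNA knockdown in TC32 Ewing sarcoma cells, comparing luciferase light from an NR0B1-promoter reporter with a CMV-promoter reporter 48 hours after transfection. Each siRNA was applied at 20 nM. A z-score of the log NR0B1-over-CMV signal, less the median of siRNAs with the same seed; more negative means a stronger specific loss of the NR0B1 reporter.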

This is part of the screen; most of the strongest results are not listed here. Sequences are the guide (antisense) strand, without overhang.

strand,target gene,seed-corrected z-score
UUGUUGUCCACAGUCAAGG,PURA,-1.663
AAUUGCAACUCAUCCAUUU,PITX1,-0.782
AACGUAAUCUUAAUAUUGC,PCNT,-0.2679
AAGAGAGUGACAUUCCUCU,INSIG1,-0.002881
AUAGUCAACAAGAUCAAAC,ASPH,-0.2435
UUUAUGUACAGGAACAGGA,IL5,-0.7215
UUCCUUUCUGGAUUGUUCU,SURF1,0.1899
UGGGCGUGAACUGUAGUGG,SHD,-0.5416
AUUUGUAGUACUACCCUUC,RRP8,2.07
UUCCUGACAGGCGAUCUGA,ALKBH5,0.5214
UUGAUCUUAAGAGCCGUUC,CACNA1D,-0.8067
UCUAAUACAGAGGUAGUUC,CABS1,-0.8062
UCCGAACAUAGUUAUGUCG,ETF1,-0.7818
UUUAGAAUGCUCUAAUAGC,BAG2,0.5819
UUACUGCCCUCAUCUUUCC,KIAA0391,0.4968
UCCCGGUCAGUAACUAUCC,NCL,0.08408
UACCAUCUAAGUCACACUG,WDR26,-0.2598
AAACUUGUUAGCAAACAGG,GCNT2,0.5268
UAGUUUAUCCAGGGCAUGG,CSTL1,-0.4153
AAGGGUGCGACAGAAGUAG,OR6C2,-0.58
UUGGUAUAACUGUAGACUC,PRKAA1,1.844
AAAGCAUUUUCGUGGAUGG,PGAP2,0.314
UAUGGGUGAACCUGGAUGC,WDR62,-0.1727
UGAUAUCUUCAGAUGUGUG,LOC728433,0.8896
UUCAUUACGGCUUUCUUCC,GK2,-0.2154
UAUAGAUCUCUUCUUGAGC,GNL2,0.2952
UGCAUUACCAUCGACAAAG,KIAA1551,-1.938
AUAAUGGUGUGACAUGUCC,SP6,-0.7607
UUGGCAGCAAUUUAUCCAC,TOMM22P3,-0.3315
AAAAUGUGAAGCCUCCUUC,SNAP47,0.4819
UAGAGUUUCUUGAACUUGG,DLX3,0.4314
AAGCUGAUAGCUCGUCUUC,NF1,-1.597
ACCUUGAUCAAAAUACGGC,BCAS2,-0.1049
UUUAGGACAUCUGAGAUGG,GCH1,0.7681
UACGGGAAAUGAUAGAUGC,IFT81,0.4427
UUCCGUAAAGACAUCUUCG,SPTB,-0.4542
AAAUCUUCCCGAUGGUUUC,VWA2,-0.03061
UCACGAAGUGGAUGGAUCC,PTX4,-1.247
UCUCAUAGUAGUGUGAAGG,STAP2,0.285
UCAUCUGUCAGUACUAGCC,CREB3,-0.329
UAGGGAAUAGGAGAGGUUG,LINC00997,-0.6978
AAUACGACGAUCUCACUCC,DZIP1,0.228
UCUCCCACAUGAAUCAGCC,TMEM254,-0.2085
AAUGUCGUUAAUUUCUUCC,MB21D1,-0.7408
UUGGUUGUGAGUUAGGGCC,MAGI1,-0.5666
UUACAUAGAACGGGUAUUC,OPN3,-0.04833
UGCCGAGUCAAGAACAGGG,ADAM33,-0.4075
UCUGGUACCUCGACAGAGC,RAB7B,0.3711
AUUGUUCUGAUAGUUGAGG,KLF10,-0.7347
AUUUCGAAUCCUAACAUCC,LIMCH1,0.5428
UGGUGGGUAAGAAGUCUCC,PSMD4,-0.7075
UGAAGUUCAGUCGCUUUCC,SLAMF6,-0.3084
AGUGUAACAACCACGGGUG,CDK4,-0.4458
UAUCGAUCCACACUGUCAG,COL12A1,-0.04408
AAUAGCAUAAUCCCAAACC,TMEM244,0.2274

The first 7 entries again:

* UUGUUGUCCACAGUCAAGG against PURA | seed-corrected z-score -1.663
* AAUUGCAACUCAUCCAUUU against PITX1 | seed-corrected z-score -0.782
* AACGUAAUCUUAAUAUUGC against PCNT | seed-corrected z-score -0.2679
* AAGAGAGUGACAUUCCUCU against INSIG1 | seed-corrected z-score -0.002881
* AUAGUCAACAAGAUCAAAC against ASPH | seed-corrected z-score -0.2435
* UUUAUGUACAGGAACAGGA against IL5 | seed-corrected z-score -0.7215
* UUCCUUUCUGGAUUGUUCU against SURF1 | seed-corrected z-score 0.1899